From PubChem BioAssay record AID1159506 (NCATS, 2015).

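Luminescence from an EWS-FLI1 target-promoter (NR0B1) reporter, set against a CMV-promoter reporter, two days after silencing single genes in TC32 Ewing sarcoma cells. Each siRNA was applied at 20 nM. A z-score of the log NR0B1-over-CMV signal, less the median of siRNAs with the same seed; more negative means a stronger specific loss of the NR0B1 reporter.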

This is part of the screen; most of the strongest results are not listed here. Sequences are the guide (antisense) strand, without overhang.

strand: UUCCGGAUAUCACUAGUUC
target gene: EXOG
seed-corrected z-score: 0.1961

strand: AUCAUUCCCACUUCCGUCU
target gene: ACSM4
seed-corrected z-score: -0.5082

strand: AUAGGAAUUCUUUUGAUAG
target gene: KANK4
seed-corrected z-score: 0.06557

strand: UUUGUUGUCGUUCCAGUUC
target gene: LRRFIP2
seed-corrected z-score: -0.936

strand: AGUGUUUUGAUAAAGAAAG
target gene: DENND6B
seed-corrected z-score: 2.115

strand: UUAAGUGUCCUAGUCCACG
target gene: MRPL53
seed-corrected z-score: 0.478

strand: UGUAGUUUAUGGUAAAGGU
target gene: EPDR1
seed-corrected z-score: -0.5001

strand: UAUAGUCCUCUGCUUUUUC
target gene: IQCC
seed-corrected z-score: -1.293

strand: UAUCCUGUCAGGGCUGUUG
target gene: FAM129C
seed-corrected z-score: 1.102

strand: UCUGUUAACAGCUUGAGGG
target gene: ACMSD
seed-corrected z-score: -1.418

strand: UCGUUUCCCAGUUCGAUAG
target gene: MDN1
seed-corrected z-score: -1.736

strand: AAGGGUAUAUGAGAGCGGG
target gene: SPDYE14P
seed-corrected z-score: -1.998

strand: UUGCUAACAGGAAAUGACG
target gene: TAF3
seed-corrected z-score: -1.421

strand: UCUCAUUGGAAUUUGUUGC
target gene: MUC21
seed-corrected z-score: -0.01847

strand: AACGUACCAGUCUUUGUCC
target gene: HTT
seed-corrected z-score: -0.276

strand: AGUUAAACAACUUGAGUGC
target gene: HOXA5
seed-corrected z-score: -0.6297

strand: UCUCUUUGUCCGAUAGUGG
target gene: LOC653653
seed-corrected z-score: -0.5654

strand: UGUCUUGUAGCGACGGUUC
target gene: NKX3-2
seed-corrected z-score: -1.207

strand: AUCCUUGUCCAUUAGAUCC
target gene: TEX35
seed-corrected z-score: -0.466

strand: AACUCAUCCACCUUGUUAC
target gene: MAGEA4
seed-corrected z-score: -0.04962

strand: UUCAUGUUCUUCACAAUCG
target gene: MAD1L1
seed-corrected z-score: 0.4549

strand: UUCUCCAACCCGUUCACCG
target gene: PAX9
seed-corrected z-score: 0.1297

strand: UGUCCAAUUAAUGACGAGG
target gene: FBXW2
seed-corrected z-score: 0.5964

strand: UCCUGAACCAAUGCAUGGG
target gene: CCDC90B
seed-corrected z-score: 0.2181

strand: UUUUAGUUUGUUGAUCAGG
target gene: MAGEF1
seed-corrected z-score: 0.4997

strand: UCCUUUUCUACCGCAGAUG
target gene: SERTAD3
seed-corrected z-score: -0.902

strand: UUUGUAGUGAGUUAGGACC
target gene: PCDHGB2
seed-corrected z-score: 0.002683

strand: UUCCGAUUCAAAUAGACAC
target gene: GAS2
seed-corrected z-score: 0.3456

strand: UAACGAUUUCAUAUCGCUC
target gene: CLK2
seed-corrected z-score: 0.07528

strand: UACACUGUAUGCAUCAUCA
target gene: SCGB2A1
seed-corrected z-score: -0.5385

strand: UUUUCCACGAGCUAAUUCU
target gene: TCP10L
seed-corrected z-score: -0.6273

strand: UAUUGUCAUUUUAAUAUGC
target gene: C9orf163
seed-corrected z-score: 0.2833

strand: UACUUGACUCUGCAUUAGC
target gene: TRIM14
seed-corrected z-score: -0.1994

strand: ACACUGCUUAGAAACAUCU
target gene: TFAP2E
seed-corrected z-score: -0.07206

strand: UAUCUCCUUAUUGAGAUCC
target gene: C19orf47
seed-corrected z-score: 0.2282

2 of the entries, repeated:

strand	target gene	seed-corrected z-score
UUUGUAGUGAGUUAGGACC	PCDHGB2	0.002683
UACACUGUAUGCAUCAUCA	SCGB2A1	-0.5385